# Results from one PubChem assay

Source: PubChem BioAssay AID1053133 (Broad Institute, 2014).

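Plate-reader measure of the Venus reporter marking one vaccinia stage in infected cells (the cell line is not named here); read time unknown. The test concentration is not given here. Percent change in Venus reporter signal; lower (more negative) values mean stronger inhibition of that viral stage.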

Values are in %. How 0% and 100% were set is not given here. Common to all entries: measured here: Venus reporter, other viral stage. This is a side read-out of the assay, for part of the compounds, not drawn at random.

structure,activity change (Venus) (%)
CC(C)C#Cc1ccc2c(c1)O[C@H](CN(C)C(=O)Nc1ccccc1)[C@@H](C)CN([C@@H](C)CO)S2(=O)=O,-47.3
C[C@H](CO)N1C[C@H](C)[C@H](CN(C)S(=O)(=O)c2ccc(F)cc2)Oc2c(NC(=O)Nc3ccc(F)cc3)cccc2C1=O,-37.72
N#Cc1cccc(-c2ccc(C3[C@@H]4CN(C(=O)Cc5ccccc5)C[C@H]3N4)cc2)c1 (some centres undefined),-66.57
C[C@@H]1CCCCO[C@H](CN(C)CC2CCCCC2)[C@H](C)CN([C@H](C)CO)C(=O)c2cc(NS(=O)(=O)c3ccccc3)ccc2O1,-76.56
CO[C@H](CN(C)S(=O)(=O)c1cccc(Cl)c1)[C@H](C)CN([C@@H](C)CO)S(=O)(=O)c1cccc(Cl)c1,-23.66
C[C@H]1CN([C@@H](C)CO)C(=O)c2cccc(NC(=O)c3ccc(-c4nccs4)cc3)c2O[C@H]1CN(C)Cc1ccc(-c2ccccc2)cc1,-38.1
C[C@@H]1CN([C@H](C)CO)S(=O)(=O)c2ccc(C#Cc3ccccc3)cc2O[C@@H]1CN(C)S(=O)(=O)c1cn(C)cn1,-35.32
COc1ccc(CN(C)C[C@H]2Oc3ccc(NC(=O)Nc4ccc(C(F)(F)F)cc4)cc3CC(=O)N([C@@H](C)CO)C[C@H]2C)cc1,-41.36
CNC[C@H]1Oc2cc(C#CC3CCCC3)ccc2S(=O)(=O)N([C@@H](C)CO)C[C@@H]1C,-52.65
C[C@H](CO)N1C[C@H](C)[C@@H](CN(C)Cc2ccc(Cl)c(Cl)c2)Oc2ccc(NC(=O)C3CC3)cc2CC1=O,-39.42
C[C@@H]1CN([C@H](C)CO)S(=O)(=O)c2ccc(C#CC3CCCCC3)cc2O[C@H]1CN(C)C(=O)Cc1ccncc1,-49.79
C[C@@H]1CN([C@H](C)CO)C(=O)c2cc(NS(=O)(=O)c3cccs3)ccc2O[C@@H](C)CCCCO[C@H]1CN(C)Cc1ccc(Cl)c(Cl)c1,-75.25
CO[C@@H](CN(C)S(=O)(=O)c1cccc(Cl)c1)[C@H](C)CN([C@@H](C)CO)S(=O)(=O)c1ccc(Cl)cc1,-41.66
O=C(c1ccccc1F)N1CC[C@H]2[C@H](CO)Nc3ccc(C#Cc4ccc(F)cc4)cc3[C@H]21,-34.06
C[C@H](CO)N1C[C@H](C)[C@@H](CN(C)C(=O)C2CCC2)Oc2cc(C#Cc3ccncc3)ccc2S1(=O)=O,-14.53
C[C@@H]1CCCCO[C@@H](CN(C)Cc2ccc3c(c2)OCO3)[C@@H](C)CN([C@@H](C)CO)C(=O)c2cc(NC(=O)Nc3ccc(C(F)(F)F)cc3)ccc2O1,-41.56
C[C@H]1CN([C@@H](C)CO)S(=O)(=O)c2ccc(C3=CCCCC3)cc2O[C@H]1CN(C)C(=O)Cc1ccccc1,-78.56
C[C@@H]1CN([C@H](C)CO)S(=O)(=O)c2ccc(-c3ccccc3F)cc2O[C@@H]1CN(C)Cc1cccnc1,-34.81
OC[C@H]1[C@@H](c2ccc(C#Cc3ccccc3)cc2)[C@@H]2CN(Cc3cncnc3)CCCCN12,-60.68
O=S(=O)(c1ccc2ccccc2c1)N1CCN(Cc2ccc(OCCO)cc2)CC1,-35.12
COc1ccc2c3c([nH]c2c1)[C@H](CO)N(S(=O)(=O)c1cn(C)cn1)CC31CCN(Cc2ccccc2F)CC1,-36.28
C[C@@H]1CN([C@@H](C)CO)C(=O)c2cc(NC(=O)Cc3ccccc3)ccc2O[C@H]1CN(C)Cc1ccc(C(F)(F)F)cc1,-27.31
C[C@@H]1CN([C@@H](C)CO)C(=O)c2cc(C#CC3CCCCC3)cnc2O[C@@H]1CN(C)S(=O)(=O)c1cccc(F)c1,-46.88
C[C@@H]1CN([C@@H](C)CO)S(=O)(=O)c2ccc(/C=C/c3ccccc3)cc2O[C@@H]1CN(C)Cc1cccnc1,-48.97
COc1ccc2c3c(n(C)c2c1)[C@H](CO)N(C(=O)C1CCCC1)CC31CCN(Cc2cccc(F)c2)CC1,-48.87
Cc1ccc(S(=O)(=O)Nc2cccc3c2O[C@H](CN(C)Cc2ccc(C(F)(F)F)cc2)[C@H](C)CN([C@H](C)CO)C3=O)cc1,-43.7
COc1cccc(C#Cc2ccc3c(c2)O[C@@H](CN(C)C)[C@@H](C)CN([C@@H](C)CO)S3(=O)=O)c1,-44.78
C[C@H]1CN([C@@H](C)CO)C(=O)c2cc(-c3cccnc3)cnc2O[C@@H]1CN(C)Cc1ccc(Oc2ccccc2)cc1,-87.72
COc1ccc(-c2ccc3c(c2)O[C@@H](CN(C)Cc2cccnc2)[C@H](C)CN([C@@H](C)CO)S3(=O)=O)cc1,-40.14
O=C(C[C@@H]1CC[C@H]2[C@@H](COC[C@H](O)CN2Cc2ccc(Oc3ccccc3)cc2)O1)N1CCN(c2ccccc2)CC1,-34.34
O=C(C[C@H]1CC[C@H](NC(=O)c2cccc(F)c2)[C@@H](CO)O1)NCc1ccc(Oc2ccccc2)cc1,-34.98
C/C=C/c1ccc2c(c1)O[C@H](CN(C)C(=O)Nc1ccc(C(F)(F)F)cc1)[C@H](C)CN([C@H](C)CO)S2(=O)=O,-65.29
C[C@@H]1CN([C@H](C)CO)S(=O)(=O)c2ccc(C#CC3CC3)cc2O[C@H]1CN(C)Cc1ccncc1,-66.89
Cc1noc(C)c1S(=O)(=O)Nc1ccc2c(c1)C(=O)N([C@@H](C)CO)C[C@H](C)[C@H](CN(C)S(=O)(=O)c1ccc(Cl)cc1)OCCCC[C@H](C)O2,-24.97
C[C@@H]1CN([C@@H](C)CO)C(=O)c2cc(C#CCc3ccccc3)cnc2O[C@H]1CN(C)CC1CCCC1,-51.95
C[C@@H]1CN([C@H](C)CO)C(=O)c2cc(NS(=O)(=O)c3ccccc3)ccc2O[C@@H]1CN(C)Cc1ccc(-c2ccccc2)cc1,-30.55
COc1ccccc1C#Cc1ccc([C@@H]2[C@H]3CN(CCC(F)(F)F)CCCCN3[C@H]2CO)cc1,-52.83
C[C@H](NC(=O)C[C@H]1CC[C@@H]2[C@H](COC[C@H](O)CN2Cc2ccc(C(F)(F)F)cc2)O1)c1ccccc1,-33.14
CC(=O)N1CCCCN2[C@H](C1)[C@H](c1ccc(-c3ccccc3)cc1)[C@@H]2CO,-31.18
Cc1noc(C)c1S(=O)(=O)Nc1ccc2c(c1)C(=O)N([C@@H](C)CO)C[C@@H](C)[C@@H](CN(C)S(=O)(=O)c1ccc(F)cc1)OCCCC[C@@H](C)O2,-45.62
C[C@H](CO)N1C[C@H](C)[C@H](CN(C)S(=O)(=O)c2cccs2)Oc2ncc(C#Cc3ccc(F)cc3)cc2C1=O,-55.36
O=C(Cc1ccncc1)N1CCCCN2[C@H](C1)[C@H](c1ccc(C#Cc3ccccc3F)cc1)[C@@H]2CO,-74.71
O=C(Nc1ccc(C(F)(F)F)cc1)Nc1ccc2c(c1)[C@@H]1C[C@H](CC(=O)N3CCc4ccccc4C3)O[C@@H](CO)[C@@H]1O2,-22.31
COc1ccccc1S(=O)(=O)N1CC[C@@H]2[C@H]1c1cc(-c3ccc(F)cc3)ccc1N[C@@H]2CO,-46.94
CC(C)NC(=O)Nc1ccc2c(c1)C(=O)N([C@@H](C)CO)C[C@@H](C)[C@@H](CN(C)Cc1ccc(Oc3ccccc3)cc1)O2,-30.04
O=C(Nc1ccc(F)cc1)N1CC(=O)N2[C@H](C1)[C@@H](c1ccc(C#Cc3ccc(F)cc3)cc1)[C@@H]2CO,-58.07
C[C@@H](NC(=O)C[C@H]1C[C@@H]2c3cc(NC(=O)c4ccc5c(c4)OCO5)ccc3O[C@@H]2[C@@H](CO)O1)c1ccccc1,-43.88
C[C@@H]1CCCCO[C@H](CN(C)C(=O)C2CCCCC2)[C@@H](C)CN([C@@H](C)CO)C(=O)c2cc(NS(=O)(=O)c3ccc(F)cc3)ccc2O1,-46.75
Cc1ccc(S(=O)(=O)Nc2ccc3c(c2)C(=O)N([C@H](C)CO)C[C@@H](C)[C@@H](CN(C)C(=O)CCC(F)(F)F)OCCCC[C@@H](C)O3)cc1,-38.76
CN(C)C(=O)c1cccc(-c2ccc3c(c2)[C@H]2[C@H](CCN2C(=O)C2CCC2)[C@@H](CO)N3)c1,-23.16
C[C@@H]1CN([C@@H](C)CO)C(=O)Cc2cc(NC(=O)Nc3ccc(C(F)(F)F)cc3)ccc2O[C@@H]1CN(C)Cc1ccc2c(c1)OCO2,-52.01

Repeated from the top, 4 entries:

structure,activity change (Venus) (%)
CC(C)C#Cc1ccc2c(c1)O[C@H](CN(C)C(=O)Nc1ccccc1)[C@@H](C)CN([C@@H](C)CO)S2(=O)=O,-47.3
C[C@H](CO)N1C[C@H](C)[C@H](CN(C)S(=O)(=O)c2ccc(F)cc2)Oc2c(NC(=O)Nc3ccc(F)cc3)cccc2C1=O,-37.72
N#Cc1cccc(-c2ccc(C3[C@@H]4CN(C(=O)Cc5ccccc5)C[C@H]3N4)cc2)c1 (some centres undefined),-66.57
C[C@@H]1CCCCO[C@H](CN(C)CC2CCCCC2)[C@H](C)CN([C@H](C)CO)C(=O)c2cc(NS(=O)(=O)c3ccccc3)ccc2O1,-76.56